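Viability assay of Plasmodium falciparum sporozoites; the read-out is not stated. The concentration is filed as 10 mM, unlikely as a test dose, so the dose is not known. The record gives no direction; compounds that gave an IC50 in retests scored well above the rest, so higher reads as lower viability. Strong results were mostly tested again. Of about 34,000 compounds tested this way, about 280 (0.84%) reached 50% or more in at least one test.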

Values are the deposited “Percent Effect”, in %. How 0% and 100% were set is not recorded. Most values in the screen are low, and negative values occur. This is an unselected part of the compounds tested. Two or more numbers in one place are separate tests of the same structure; such repeats can differ widely.

O=C(CC1CC1)N1CCC2(CC1)CN(c1ncc(F)cn1)CCO2 gave -1.823%. Result for Cc1ccc(OCC(=O)NC2CCN(S(C)(=O)=O)CC2)cc1 was -6.144%. For O=C(O)C(F)(F)F.[H][C@@]12CN(CC3CCCC3)CCO[C@]1([H])CN(C(=O)C1CC(F)(F)C1)C2 the result was 2.14%. With O=C(NCC(F)(F)F)NC1CCCc2c1cnn2CCO (centres unmarked) the screen gave 9.456% & 22.48% & 1.502%. With Cc1cccc(N2CCN(CCNC(=O)C(C)n3cncn3)CC2)c1 (centres unmarked) the screen gave -1.874%. For O=C(CCc1cc(F)ccc1F)NS(=O)(=O)c1ccc2c(c1)OCCO2 the result was -0.1346%.

CCn1cnnc1CNC(=O)N1CCN(c2nc(C)c(C)s2)CC1 gave 3.598%. CCOCC(O)CN1CCN(C(=O)c2cccnc2OC)CC1 (centres unmarked) gave -3.271%. Cc1noc(C)c1C(=O)N1CCCN(Cc2cscn2)CC1 read -0.7823%. For CC(NC(=O)NCc1cccs1)c1ccc2c(c1)CCC(=O)N2 (centres unmarked) the result was -7.262% & 10.64% & 9.345%. For CCCS(=O)(=O)NC(C)C(=O)NCc1ccc(N2CCN(C)CC2)nc1 (centres unmarked) the result was 5.28%. Cc1nnc2ccc(N3CCN(CCc4ccccn4)CC3)nn12 read 1.739%.

With Cc1noc(C)c1-c1ccnc(C2CCN(C3CCOCC3)CC2)c1 the screen gave 6.264%. O=C(O)C(F)(F)F.[H][C@]12CCN(CCOC)[C@@]1([H])CC[C@@H](COCc1csc(C)n1)O2 gave 4.209%. Result for O=C(O)C(F)(F)F.[H][C@@]12CCCO[C@]1([H])[C@H](N(C)C)CN2C(=O)Cc1cccc(F)c1 was -4.729%. For CC1(C(=O)N2CCOCC2)CN(CC2CCOCC2)CCO1 (centres unmarked) the result was 20.46%. O=C(O)C(F)(F)F.O=C(O)C(F)(F)F.[H][C@]12CCC(=O)N(CCN3CCCC3)[C@@]1([H])CCN2Cc1ccc(C)s1 gave 3.576%. With CN(Cc1ccccn1)C1CC2(CCN(Cc3cccnc3)CC2)C1.O=C(O)C(F)(F)F.O=C(O)C(F)(F)F.O=C(O)C(F)(F)F the screen gave 5.882%.

For CS(=O)(=O)N[C@@H]1CCO[C@]2(CCN(CC3CCOCC3)C2)C1.O=C(O)C(F)(F)F the result was -4.973%. For O=C(O)C(F)(F)F.[H][C@@]12COC[C@]1(COCc1csc(C)n1)CN(Cc1ccoc1)C2 the result was -7.612%. With O=c1[nH]c(CN2CCN(CC(F)(F)F)CC2)nc2ccccc12 the screen gave 0.4571%. For Cc1cc(N2CCCC(c3nccnc3N(C)C)C2)ncn1 (centres unmarked) the result was 7.575%. Cc1cnn(CC2CCCN2C(=O)Cc2cccs2)c1 (centres unmarked) gave 8.681% & -3.932% & -2.524%. For COCc1ncn2c1CN(C(=O)c1cnc3ccccc3c1)CC2 the result was 15%.

Cc1ccccc1N1CCN(C(=O)c2ncc(F)cc2F)C(C)C1 (centres unmarked) gave -6.064%. With O=C(O)C(F)(F)F.O=C(O)C(F)(F)F.[H][C@]12CCC[C@@]1(COc1cccnc1)CN(CC1CCOCC1)C2 the screen gave 7.106%. Result for Cc1ccc(NC(=O)NC(C)C(=O)N2CCS(=O)(=O)CC2)cc1 (centres unmarked) was -21.06%. For CC(=O)N1N=C(Cc2ccccc2)OC1C(=O)NCC(C)C (centres unmarked) the result was -20.18%. For Cc1ccc(S(=O)(=O)NCc2[nH]ncc2Br)cc1F the result was -25.86%. CN1CCN(S(=O)(=O)c2cncc(F)c2)c2ccccc2C1 gave -29.94%.

With CCN1CCOC(CNCc2ccccc2OCc2ccccn2)C1 (centres unmarked) the screen gave 9.861%. NC(=O)c1cc(C2CCCN(C(=O)CCc3ccncc3)C2)n[nH]1 (centres unmarked) gave -0.3069%. Result for O=C(Cc1ccco1)N1CCC2(CCOCC2COCC2CC2)CC1 (centres unmarked) was -6.843%. COCCn1c(-c2cccc(OC)c2)cnc1NC(=O)NCC(C)C read 4.632%. CN(C)C(=O)c1cc2ncc(C(=O)NC3CC3)cc2n1C gave -2.912%. With CC(=O)N1CCCN(C(=O)c2cnn(-c3ccccc3Cl)c2)CC1 the screen gave -3.533%.

CC(=O)NCCNC(=O)CN1CCN(Cc2nccn2C)C(C)C1 (centres unmarked) read 0.2506%.

From ChEMBL document CHEMBL3988442, “University of Dundee, Small-Polar-MMV Screening Library” (2021).